Reference: PubChem BioAssay AID1259424 (University of Nebraska Medical Center, 2018)

Aim: 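Seek colon cancer survival genes behaving like KSR1, using a six-gene signature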 (primary screen)
Cell system: human HCT116 colon cancer cells
Knock-down reagent: siRNA pool against human genes, 50 nM
Measured: 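Log2 levels of six mRNAs (branched-DNA multiplex), adjusted by two reference genes and the non-targeting median, then scored against the average KSR1 knockdown pattern as Pearson r and euclidean distance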
Scale: mean correlation with KSR1 profile: higher = expression change more like KSR1 knockdown; mean distance from KSR1 profile: higher = expression change less like KSR1 knockdown
Here is an unselected part of about 14,000 deposited reagents. 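Higher correlation or smaller distance means closer resemblance to KSR1 loss; control wells, including KSR1 knockdowns, recur on many plates.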 Further read-outs or replicates are left out here. The record does not give: the time to read-out.

USP22 (ubiquitin specific peptidase 22) — mean correlation with KSR1 profile: -0.0823; mean distance from KSR1 profile: 2.38
FDFT1 (farnesyl-diphosphate farnesyltransferase 1) — mean correlation with KSR1 profile: -0.246; mean distance from KSR1 profile: 3.79
COQ6 (coenzyme Q6, monooxygenase) — mean correlation with KSR1 profile: 0.0579; mean distance from KSR1 profile: 1.74
ANKRD27 (ankyrin repeat domain 27) — mean correlation with KSR1 profile: 0.664; mean distance from KSR1 profile: 2.35
GSTM1 (glutathione S-transferase mu 1) — mean correlation with KSR1 profile: 0.189; mean distance from KSR1 profile: 2.03
SLC7A5P1 — mean correlation with KSR1 profile: 0.665; mean distance from KSR1 profile: 4.82
SLAMF6 (SLAM family member 6) — mean correlation with KSR1 profile: 0.119; mean distance from KSR1 profile: 2.94
EPHA7 (EPH receptor A7) — mean correlation with KSR1 profile: -0.173; mean distance from KSR1 profile: 2.32
CCL11 (C-C motif chemokine ligand 11) — mean correlation with KSR1 profile: 0.116; mean distance from KSR1 profile: 2.18
DMTN (dematin actin binding protein) — mean correlation with KSR1 profile: 0.23; mean distance from KSR1 profile: 1.77
HAP1 (huntingtin associated protein 1) — mean correlation with KSR1 profile: 0.392; mean distance from KSR1 profile: 1.23
SORCS1 (sortilin related VPS10 domain containing receptor 1) — mean correlation with KSR1 profile: -0.412; mean distance from KSR1 profile: 2.08
RFX3 (regulatory factor X3) — mean correlation with KSR1 profile: -0.0692; mean distance from KSR1 profile: 1.87
TLE4 (TLE family member 4, transcriptional corepressor) — mean correlation with KSR1 profile: -0.107; mean distance from KSR1 profile: 2.4
TBC1D15 (TBC1 domain family member 15) — mean correlation with KSR1 profile: 0.104; mean distance from KSR1 profile: 1.7
TCTN3 (tectonic family member 3) — mean correlation with KSR1 profile: -0.42; mean distance from KSR1 profile: 1.85
BPTF (bromodomain PHD finger transcription factor) — mean correlation with KSR1 profile: 0.336; mean distance from KSR1 profile: 1.35
POLB (DNA polymerase beta) — mean correlation with KSR1 profile: -0.529; mean distance from KSR1 profile: 2.81
MYBPC1 (myosin binding protein C1) — mean correlation with KSR1 profile: 0.718; mean distance from KSR1 profile: 1.52
NUTM2F (NUT family member 2F) — mean correlation with KSR1 profile: -0.467; mean distance from KSR1 profile: 3.11
NUP85 (nucleoporin 85) — mean correlation with KSR1 profile: 0.41; mean distance from KSR1 profile: 1.43
SLC35E2A — mean correlation with KSR1 profile: 0.656; mean distance from KSR1 profile: 0.674
FILIP1 (filamin A interacting protein 1) — mean correlation with KSR1 profile: 0.0914; mean distance from KSR1 profile: 1.53
AKT2 (AKT serine/threonine kinase 2) — mean correlation with KSR1 profile: -0.0509; mean distance from KSR1 profile: 4.01
CLCA2 (chloride channel accessory 2) — mean correlation with KSR1 profile: -0.0619; mean distance from KSR1 profile: 1.22
ANG (angiogenin) — mean correlation with KSR1 profile: 0.813; mean distance from KSR1 profile: 1.92
CC2D2A (coiled-coil and C2 domain containing 2A) — mean correlation with KSR1 profile: -0.151; mean distance from KSR1 profile: 2.34
TRIM36 (tripartite motif containing 36) — mean correlation with KSR1 profile: 0.599; mean distance from KSR1 profile: 1.61
GRIN2B (glutamate ionotropic receptor NMDA type subunit 2B) — mean correlation with KSR1 profile: 0.384; mean distance from KSR1 profile: 1.62
COPS8 (COP9 signalosome subunit 8) — mean correlation with KSR1 profile: 0.0291; mean distance from KSR1 profile: 2.15
ITGA8 (integrin subunit alpha 8) — mean correlation with KSR1 profile: -0.777; mean distance from KSR1 profile: 1.85
PLCB2 (phospholipase C beta 2) — mean correlation with KSR1 profile: 0.446; mean distance from KSR1 profile: 1.78
DCPH1 (damage control phosphatase 1) — mean correlation with KSR1 profile: 0.7; mean distance from KSR1 profile: 1.41
NEU1 (neuraminidase 1) — mean correlation with KSR1 profile: -0.267; mean distance from KSR1 profile: 2.45
RPP38 (ribonuclease P/MRP subunit p38) — mean correlation with KSR1 profile: -0.33; mean distance from KSR1 profile: 2.33
RPP25 (ribonuclease P/MRP subunit p25) — mean correlation with KSR1 profile: 0.189; mean distance from KSR1 profile: 2.15

Ordered by “mean distance from KSR1 profile” (low to high): 4 of the entries above
CCL11 (C-C motif chemokine ligand 11) — mean correlation with KSR1 profile: 0.116; mean distance from KSR1 profile: 2.18
EPHA7 (EPH receptor A7) — mean correlation with KSR1 profile: -0.173; mean distance from KSR1 profile: 2.32
SLAMF6 (SLAM family member 6) — mean correlation with KSR1 profile: 0.119; mean distance from KSR1 profile: 2.94
SLC7A5P1 — mean correlation with KSR1 profile: 0.665; mean distance from KSR1 profile: 4.82
